# Results as given in the supplement of paper PMC11438910.
# The list shows a part of the results. Only a few entries rise above the background.
# B1: 4-127.4 (protein)
# chain 1: QVQLQESGPGLVKPSETLSLTCGVSGYSISSGHGWSWIRQPPGKGLEWIGYVGGSSGNTNYNPSLKSRVTISKDTSKNQISLKLSSVTAADTAVYYCARRGISGTFGLVDYWGQGVLVTVSS
# chain 2: QSVLTQPPSVSGAPGQRVTISCTGSSSNIGGYYVQWYQQLPGSAPKLLIYDNDQRPSGVSDRISGSRSGTSASLTITGLQSEDEADYYCQSFDSFLRGVLFGGGTRLTVL
# How the values were obtained:
# Assay in all cases: fluorescence intensity of antibody binding to polysaccharide-coupled beads; higher = stronger binding
# [1] = target: pneumococcal polysaccharide Pn41A
# [2] = target: pneumococcal polysaccharide Pn41F
# [3] = target: pneumococcal polysaccharide Pn42
# [4] = target: pneumococcal polysaccharide Pn43
# [5] = target: pneumococcal polysaccharide Pn44
# [6] = target: pneumococcal polysaccharide Pn45
# [7] = target: pneumococcal polysaccharide Pn46
# [8] = target: pneumococcal polysaccharide Pn47A
# [9] = target: pneumococcal polysaccharide Pn47F
# [10] = target: pneumococcal polysaccharide Pn48
# [11] = target: pneumococcal polysaccharide Pn5
# [12] = target: pneumococcal polysaccharide Pn6A
# [13] = antibody concentration 2.8593 ng/mL
# [14] = antibody concentration 15.2894 ng/mL
# [15] = antibody concentration 81.7561 ng/mL
# [16] = antibody concentration 437.17 ng/mL
# [17] = antibody concentration 2337.65 ng/mL
# [18] = antibody concentration 12500 ng/mL
# [19] = antibody concentration 0.1 ng/mL
# [20] = antibody concentration 0.534724 ng/mL
binder,measurement,setting,value
B1,fluorescence intensity,[1]; [13],23.5 MFI
same,fluorescence intensity,[1]; [14],23.5 MFI
same,fluorescence intensity,[1]; [15],24.5 MFI
same,fluorescence intensity,[1]; [16],24.5 MFI
same,fluorescence intensity,[1]; [17],25.8 MFI
same,fluorescence intensity,[1]; [18],28 MFI
same,fluorescence intensity,[2]; [19],11.5 MFI
same,fluorescence intensity,[2]; [20],12.5 MFI
same,fluorescence intensity,[2]; [13],12 MFI
same,fluorescence intensity,[2]; [14],12.5 MFI
same,fluorescence intensity,[2]; [15],12.5 MFI
same,fluorescence intensity,[2]; [16],15 MFI
same,fluorescence intensity,[2]; [17],16 MFI
same,fluorescence intensity,[2]; [18],21 MFI
same,fluorescence intensity,[3]; [19],10.5 MFI
same,fluorescence intensity,[3]; [20],12 MFI
same,fluorescence intensity,[3]; [13],11.5 MFI
same,fluorescence intensity,[3]; [14],11.8 MFI
same,fluorescence intensity,[3]; [15],12.5 MFI
same,fluorescence intensity,[3]; [16],12.5 MFI
same,fluorescence intensity,[3]; [17],13.5 MFI
same,fluorescence intensity,[3]; [18],22 MFI
same,fluorescence intensity,[4]; [19],14.5 MFI
same,fluorescence intensity,[4]; [20],16 MFI
same,fluorescence intensity,[4]; [13],16.5 MFI
same,fluorescence intensity,[4]; [14],14 MFI
same,fluorescence intensity,[4]; [15],16.8 MFI
same,fluorescence intensity,[4]; [16],18.5 MFI
same,fluorescence intensity,[4]; [17],26 MFI
same,fluorescence intensity,[4]; [18],66.8 MFI
same,fluorescence intensity,[5]; [19],26 MFI
same,fluorescence intensity,[5]; [20],25.5 MFI
same,fluorescence intensity,[5]; [13],26 MFI
same,fluorescence intensity,[5]; [14],24.2 MFI
same,fluorescence intensity,[5]; [15],23.5 MFI
same,fluorescence intensity,[5]; [16],26 MFI
same,fluorescence intensity,[5]; [17],27.5 MFI
same,fluorescence intensity,[5]; [18],33.2 MFI
same,fluorescence intensity,[6]; [19],11 MFI
same,fluorescence intensity,[6]; [20],10 MFI
same,fluorescence intensity,[6]; [13],10.5 MFI
same,fluorescence intensity,[6]; [14],12 MFI
same,fluorescence intensity,[6]; [15],11 MFI
same,fluorescence intensity,[6]; [16],10.8 MFI
same,fluorescence intensity,[6]; [17],11.5 MFI
same,fluorescence intensity,[6]; [18],17 MFI
same,fluorescence intensity,[7]; [19],23 MFI
same,fluorescence intensity,[7]; [20],23 MFI
same,fluorescence intensity,[7]; [13],22.5 MFI
same,fluorescence intensity,[7]; [14],24 MFI
same,fluorescence intensity,[7]; [15],24.8 MFI
same,fluorescence intensity,[7]; [16],25.5 MFI
same,fluorescence intensity,[7]; [17],27 MFI
same,fluorescence intensity,[7]; [18],42.2 MFI
same,fluorescence intensity,[8]; [19],14.5 MFI
same,fluorescence intensity,[8]; [20],15.5 MFI
same,fluorescence intensity,[8]; [13],16 MFI
same,fluorescence intensity,[8]; [14],15.2 MFI
same,fluorescence intensity,[8]; [15],15.5 MFI
same,fluorescence intensity,[8]; [16],15.5 MFI
same,fluorescence intensity,[8]; [17],16 MFI
same,fluorescence intensity,[8]; [18],22.5 MFI
same,fluorescence intensity,[9]; [19],11.2 MFI
same,fluorescence intensity,[9]; [20],11 MFI
same,fluorescence intensity,[9]; [13],11.5 MFI
same,fluorescence intensity,[9]; [14],11.5 MFI
same,fluorescence intensity,[9]; [15],12 MFI
same,fluorescence intensity,[9]; [16],13.8 MFI
same,fluorescence intensity,[9]; [17],13.5 MFI
same,fluorescence intensity,[9]; [18],28.8 MFI
same,fluorescence intensity,[10]; [19],22.2 MFI
same,fluorescence intensity,[10]; [20],21.8 MFI
same,fluorescence intensity,[10]; [13],20.5 MFI
same,fluorescence intensity,[10]; [14],21.2 MFI
same,fluorescence intensity,[10]; [15],21 MFI
same,fluorescence intensity,[10]; [16],22 MFI
same,fluorescence intensity,[10]; [17],28 MFI
same,fluorescence intensity,[10]; [18],39.5 MFI
same,fluorescence intensity,[11]; [19],8.5 MFI
same,fluorescence intensity,[11]; [20],9.25 MFI
same,fluorescence intensity,[11]; [13],8.75 MFI
same,fluorescence intensity,[11]; [14],9.5 MFI
same,fluorescence intensity,[11]; [15],9.5 MFI
same,fluorescence intensity,[11]; [16],10.5 MFI
same,fluorescence intensity,[11]; [17],12 MFI
same,fluorescence intensity,[11]; [18],32 MFI
same,fluorescence intensity,[12]; [19],22 MFI
same,fluorescence intensity,[12]; [20],20.5 MFI
same,fluorescence intensity,[12]; [13],22.8 MFI
same,fluorescence intensity,[12]; [14],23.5 MFI

# Retrieved one by one from the list above:
binder,measurement,setting,value
B1,fluorescence intensity,[8]; [13],16 MFI
same,fluorescence intensity,[8]; [15],15.5 MFI
same,fluorescence intensity,[11]; [13],8.75 MFI
same,fluorescence intensity,[5]; [20],25.5 MFI
same,fluorescence intensity,[3]; [17],13.5 MFI
